Among the data in US20210030883A1 are binding values, retold here.

Sequences of proteins named here, by UniProt entry; tags and fusion partners are left off. Residues count along the entry.
UniProt Q9ERK7: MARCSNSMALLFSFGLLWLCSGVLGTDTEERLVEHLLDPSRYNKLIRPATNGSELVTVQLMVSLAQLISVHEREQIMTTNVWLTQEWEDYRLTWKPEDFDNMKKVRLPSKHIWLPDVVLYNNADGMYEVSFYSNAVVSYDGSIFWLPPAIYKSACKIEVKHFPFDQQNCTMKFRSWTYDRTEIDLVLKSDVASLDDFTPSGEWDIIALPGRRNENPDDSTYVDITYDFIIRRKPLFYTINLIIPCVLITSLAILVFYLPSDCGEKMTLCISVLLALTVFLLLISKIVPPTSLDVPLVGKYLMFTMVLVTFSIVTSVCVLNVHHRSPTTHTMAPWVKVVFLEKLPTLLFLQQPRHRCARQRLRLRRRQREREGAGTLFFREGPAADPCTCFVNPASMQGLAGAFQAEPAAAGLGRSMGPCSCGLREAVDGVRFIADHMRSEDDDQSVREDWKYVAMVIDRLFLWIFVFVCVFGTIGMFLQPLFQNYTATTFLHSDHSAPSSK
UniProt O70174, residues 31-629: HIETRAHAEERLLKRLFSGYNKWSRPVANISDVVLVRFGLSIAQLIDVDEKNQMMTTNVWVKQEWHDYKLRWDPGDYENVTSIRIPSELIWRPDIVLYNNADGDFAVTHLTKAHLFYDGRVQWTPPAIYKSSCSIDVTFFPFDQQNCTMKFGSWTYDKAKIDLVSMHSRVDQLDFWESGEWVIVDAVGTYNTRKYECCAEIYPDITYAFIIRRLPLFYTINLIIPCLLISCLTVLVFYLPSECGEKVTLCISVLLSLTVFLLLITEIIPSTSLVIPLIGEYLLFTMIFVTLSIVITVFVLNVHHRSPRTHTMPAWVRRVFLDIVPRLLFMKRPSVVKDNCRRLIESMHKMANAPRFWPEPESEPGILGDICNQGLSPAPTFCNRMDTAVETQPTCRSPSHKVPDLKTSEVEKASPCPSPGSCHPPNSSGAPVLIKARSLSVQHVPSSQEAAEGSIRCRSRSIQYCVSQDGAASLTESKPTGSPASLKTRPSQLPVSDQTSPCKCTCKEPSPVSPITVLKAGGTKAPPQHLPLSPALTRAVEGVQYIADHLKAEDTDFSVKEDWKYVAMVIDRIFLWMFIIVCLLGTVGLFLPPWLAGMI

The target of this experiment is nicotinic acetylcholine receptor subunit β2-cyan fluorescent protein (mouse) (UniProt Q9ERK7). Put plainly: co-immunoprecipitation from stable HEK293 cell lines.

These are yes or no findings as the source states them, for the method shown. Binding seen in cells or lysates may run through a third protein. Some results given as binding are weak or reduced against the parent protein; the word gives no strength.

Regarding “nicotinic acetylcholine receptor subunit α4-yellow fluorescent protein (from UniProt O70174 31-629)”, the binding result was “binds”.
